Experimental data from the supplement of paper PMC8256030.
Several values for one entry are separate records, joined by “and”; a condition that tells them apart may be missing. Identical values can stand only once. This is one part of the list. Single values are uncertain here, since repeats match poorly.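 HEK293T cells were given each compound shortly before transfection with a reporter in which red mCherry is followed by the SARS-CoV-2 frameshift element and then GFP in the −1 frame, so GFP appears only after frameshifting.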

Key:
HEK293T = assay: percent viability (nuclei count) relative to control; higher = more viable cells; details: 10 µM; 24 h
[1] = system: SARS-CoV-2 -1 PRF reporter mCherry-FSE-GFP(-1); assay: mCherry (red) intensity as percent of control; higher = higher upstream reporter expression; details: 10 µM; 24 h; HEK293T
[2] = system: SARS-CoV-2 -1 PRF reporter mCherry-FSE-GFP(-1); assay: percent effect, decrease of GFP/mCherry ratio (-1 PRF reporter) relative to controls; higher = stronger frameshift inhibition; details: 10 µM; 24 h; HEK293T

SMILES	percent viability (HEK293T)	mCherry [1]	percent effect [2]
O=C([O-])Cc1ccccc1.[Na+] [Sodium Phenylacetate]	107%	78.8%	-5.77%
COC[C@@H](NC(C)=O)C(=O)NCc1ccccc1 [lacosamide]	299%	92.2%	-3.7%
C[C@@H]1CC[C@H]2[C@@H](C)C(=O)O[C@@H]3O[C@@]4(C)CC[C@@H]1[C@]32OO4 [Artemisinin]	193%	72%	-3.55%
CCN(CC)C(C)C(=O)c1ccccc1 (stereo not drawn) [amfepramone]	217%	88.8%	0.0357%
CCC1(C)CC(=O)NC(=O)C1 [bemegride]	202%	99.2%	-4.46%
CN(C)[C@@H]1C(=O)C(C(N)=O)=C(O)[C@@]2(O)C(=O)C3=C(O)c4c(O)cccc4[C@@](C)(O)[C@H]3C[C@@H]12 [Tetracycline]	211% and 100%	85.6% and 63.4%	-7.75% and 0.79%
Oc1ccc2[nH]cc(CCCCN3CC=C(c4ccccc4)CC3)c2c1 [roxindole]	181%	61.7%	-4.92%
CC[C@@]1([C@@H]2O[C@@H]([C@H]3O[C@@](O)(CO)[C@H](C)C[C@@H]3C)C[C@@H]2C)CC[C@H]([C@]2(C)CC[C@]3(C[C@H](O)[C@@H](C)[C@@H]([C@@H](C)[C@@H](OC)[C@H](C)C(=O)O)O3)O2)O1	519%	110%	-1.92%
CC(NC(C)(C)C)C(=O)c1cccc(Cl)c1 (stereo not drawn) [bupropion]	302% and 245%	70.4% and 95.2%	-1.34% and -3.43%
NC(=O)C[S@@+]([O-])C(c1ccccc1)c1ccccc1 [armodafinil]	300%	106%	-1.75%
CCOP(=S)(OCC)Oc1nc(Cl)c(Cl)cc1Cl	21.3%	52.8%	-1.17%
CCC1C(C)=NN=C(c2ccc(OC)c(OC)c2)c2cc(OC)c(OC)cc21 (stereo not drawn) [tofisopam]	69.6%	109%	-6.23%
C=CCN1CC[C@]23CCCC[C@H]2[C@H]1Cc1ccc(O)cc13 [levallorphan]	134%	65.4%	1.33%
COC(=O)C(c1ccccc1)C1CCCCN1 (stereo not drawn) [methylphenidate]	319% and 226%	97.3% and 106%	-0.76% and -1.77%
CN(C)[C@@H]1C(=O)C(C(N)=O)=C(O)[C@@]2(O)C(=O)C3=C(O)c4c(O)ccc(Cl)c4[C@@](C)(O)[C@H]3C[C@@H]12 [Chlortetracycline]	242%	79.6%	-4.82%
OC[C@@H](O)[C@H]1O[C@@H]2O[C@H](C(Cl)(Cl)Cl)O[C@@H]2[C@H]1O [chloralose]	142%	102%	-1.6%

SMILES	percent viability (HEK293T)	mCherry [1]	percent effect [2]
COc1ccc(O)c(C(C)(C)C)c1	167%	109%	-9.87%
CC(C)C[C@H](CN)CC(=O)O	249%	103%	2.03%
Cc1nnc2n1-c1sc(Br)cc1C(c1ccccc1Cl)=NC2 [brotizolam]	20.9%	107%	-15.5%
Oc1cccc2cccnc12	88.1%	118%	-17.2%
C[C@@H](Cc1ccccc1)N(C)Cc1ccccc1 [Didrex]	231%	91%	-2.67%
CC[N+]1(C)CCCC(OC(=O)C(O)(c2ccccc2)c2ccccc2)C1 (stereo not drawn) [pipenzolate bromide]	13.5%	33.3%	0.234%
CN(C)C1C(=O)C(C(N)=O)=C(O)C2(O)C(=O)C3=C(O)c4c(O)cccc4C(C)(O)C3CC12 (stereo not drawn)	131%	107%	-6.94%
c1ccc(C2(N3CCCCC3)CCCCC2)cc1 [phencyclidine]	333%	96.7%	-1.7%
NC(=O)CN1CCCC1=O [piracetam]	293%	75.2%	-2.87%
COc1ccc2c3c1O[C@H]1[C@@H](O)CC[C@H]4[C@@H](C2)N(C)CC[C@@]341 [dihydrocodeine]	263%	97.1%	-3.51%
CCN1C[C@]2(COC)[C@H](O)C[C@H](OC)[C@]34C1[C@H]([C@H](OC)[C@H]23)[C@]1(OC(C)=O)[C@H]2[C@@H](OC(=O)c3ccccc3)[C@](O)(C[C@H]24)[C@@H](OC)[C@@H]1O	162%	125%	-9.57%
Cc1cccc([C@H](C)c2c[nH]cn2)c1C [dexmedetomidine]	193%	104%	-2.43%
O=C1Nc2ccc(Cl)cc2C(c2ccccc2Cl)=NC1O (stereo not drawn) [lorazepam]	340%	88.8%	-4.89%
C=CC[C@]1(O)CC[C@H]2[C@@H]3CCC4=CCCC[C@@H]4[C@H]3CC[C@@]21C [Gestanin]	207%	105%	-0.782%
CCC(C)C1(CC)C(=O)NC(=O)NC1=O (stereo not drawn) [secbutabarbital]	268%	85.6%	-4.57%
